According to PubChem BioAssay (EPA / NIEHS):
Inconclusive results, whose numbers are uncertain, are shown with a selection of clear calls. Potencies beside an inconclusive call are fits to weak or partial responses and may not hold up. The source made the active and inactive calls. The calls were made as follows: active = hit-call score of the fitted dose curve at least 0.9, where 1 is the maximum; inconclusive = response in the unintended direction; inactive = score below 0.9.

Protein sequences, listed by entry. Tags and fused reporters are not part of them. Lines headed by an entry give the natural chain unless they say otherwise; changes in a name come on top.
UniProt P60484: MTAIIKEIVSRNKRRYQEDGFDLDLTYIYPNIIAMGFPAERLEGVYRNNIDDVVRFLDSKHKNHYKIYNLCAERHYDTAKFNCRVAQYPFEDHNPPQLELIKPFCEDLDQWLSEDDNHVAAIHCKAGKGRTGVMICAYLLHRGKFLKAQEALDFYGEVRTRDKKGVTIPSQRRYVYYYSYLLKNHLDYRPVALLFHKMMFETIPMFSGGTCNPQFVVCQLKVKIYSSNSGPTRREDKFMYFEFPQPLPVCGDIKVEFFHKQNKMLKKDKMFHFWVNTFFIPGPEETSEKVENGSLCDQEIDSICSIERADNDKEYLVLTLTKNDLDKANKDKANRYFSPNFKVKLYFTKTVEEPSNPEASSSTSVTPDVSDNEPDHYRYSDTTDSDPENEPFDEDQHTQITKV

These compounds were tested against human Phosphatase and Tensin Homolog (PTEN), PTEN (gene 5728) (UniProt P60484) (assay: NVS_ENZ_hPTEN: NovaScreen (NVS) Enzymatic Assay for human Phosphatase and Tensin Homolog (PTEN) (AID 2283203)).
Description: NVS_ENZ_hPTEN is a biochemical, single-readout assay that uses extracted gene-proteins in a cell-free assay. Measurements were taken 1 hour after chemical dosing in a 384-well plate.NVS_ENZ_hPTEN is one of one assay component(s) measured or calculated from the NVS_ENZ_hPTEN assay. It is designed to make measurements of enzyme activity, a form of enzyme reporter, as detected with fluorescence intensity signals by Fluorescence and electrophoretic mobility shift technology.Data from the assay component NVS_ENZ_hPTEN was analyzed into 1 assay endpoint. This assay endpoint, NVS_ENZ_hPTEN, was analyzed in the positive analysis fitting direction relative to DMSO as the negative control and baseline of activity. Using a type of enzyme reporter, loss-of-signal activity can be used to understand changes in the enzymatic activity as they relate to the gene PTEN. Furthermore, this assay endpoint can be referred to as a primary readout, because this assay has produced multiple assay endpoints where this one serves a enzymatic activity function. To generalize the intended target to other relatable targets, this assay endpoint is annotated to the phosphatase intended target family, where the subfamily is dual-specific phosphatase.
Binding assays used specific radioligands (tritiated, iodinated) with non-radioactive competitive displacement ligands in agonist or antagonist protocols (as indicated) and various reference compounds and inhibitors to titrate specific binding to receptors and transporters. Most enzyme assays (CYPs, kinases, phosphatases, proteases, HDACs) used recombinant protein and specific substrates (fluorescence mostly, some colorimetric and radioactive) and inhibitors, followed by a biochemical separation of substrate and product. All assays for the biochemical HTS were initially run in duplicate at a single concentration (10 uM for CYP450 assays and 25 uM for all others). […] Each assay was run with positive and negative controls, and concurrent controls on every plate. The follow-up (secondary) screen tested active chemical-pairs in concentration series, as well as a few additional assays not tested in the primary screen, some selected negative inactives, and several cases re-run in the concentration series for confirmatory purposes.

Row | SMILES | outcome | AC50
1 | CON(C)C(=O)Nc1ccc(Cl)c(Cl)c1 | inactive | –
2 | CC(C)(C)c1ccccc1OP(=O)(Oc1ccccc1)Oc1ccccc1 | – | inconclusive: 290 nM
3 | CCc1ccccc1C | – | inconclusive: 535 nM
4 | O=c1c2ccccc2c(=O)c2c1cc(Cl)c1[nH]c3c([nH]c12)c(Cl)cc1c(=O)c2ccccc2c(=O)c13 | – | inconclusive: 442 nM
5 | CC1=C2C[C@H]3[C@@H](CC=C4C[C@@H](O)CC[C@@]43C)[C@@H]2CC[C@]12O[C@@H]1C[C@H](C)CN[C@H]1[C@H]2C | – | inconclusive: 87.2 nM
6 | CC[C@H](C)[C@H]1O[C@]2(C=C[C@@H]1C)C[C@@H]1C[C@@H](C/C=C(\C)[C@@H](O[C@H]3C[C@H](OC)[C@@H](O[C@H]4C[C@H](OC)[C@@H](NC)[C@H](C)O4)[C@H](C)O3)[C@@H](C)/C=C/C=C3\CO[C@@H]4[C@H](O)C(C)=C[C@@H](C(=O)O1)[C@]34O)O2 | – | active: 4.5 nM
7 | ClC1=C(Cl)[C@]2(Cl)[C@@H]3[C@@H](Cl)[C@H](Cl)C[C@@H]3[C@@]1(Cl)C2(Cl)Cl | inactive | –
8 | SCc1ccco1 | – | active: 25000 nM
9 | N#Cc1c(Cl)c(Cl)c(Cl)c(C#N)c1Cl | inactive | –
10 | CN(C)c1nc(=O)n(C2CCCCC2)c(=O)n1C | – | inconclusive: 25000 nM
11 | ClCCN1CCOCC1 | – | inconclusive: 140 nM
12 | Cc1cccc(OP(=O)(Oc2cccc(C)c2)Oc2cccc(C)c2)c1 | inactive | –
13 | Oc1cccc(-c2ccccc2)c1 | – | inconclusive: 196 nM
14 | Cc1ccc(CCl)cc1 | – | inconclusive: 188 nM
15 | C[C@]12CC[C@H](O)C[C@H]1CC[C@@H]1[C@@H]2C[C@@H](O)[C@]2(C)[C@@H](C3=CC(=O)OC3)CC[C@]12O | – | inconclusive: 289 nM
16 | CCCN(CCC)c1c([N+](=O)[O-])cc(S(N)(=O)=O)cc1[N+](=O)[O-] | – | inconclusive: 639 nM
17 | O=C1C(Cl)=C(Cl)C(=O)C(Cl)=C1Cl | – | inconclusive: 1290 nM
18 | Cc1cc(Cl)ccc1O[C@H](C)C(=O)O | – | inconclusive: 533 nM
19 | Cc1ccccc1OP(=O)(Oc1ccccc1)Oc1ccccc1 | – | active: 44900 nM
20 | O=c1ssc(Cl)c1Cl | inactive | –

9 of the compounds above, as tab-separated lines.
Row	SMILES	outcome	AC50
1	CON(C)C(=O)Nc1ccc(Cl)c(Cl)c1	inactive	–
2	CC(C)(C)c1ccccc1OP(=O)(Oc1ccccc1)Oc1ccccc1	–	inconclusive: 290 nM
3	CCc1ccccc1C	–	inconclusive: 535 nM
4	O=c1c2ccccc2c(=O)c2c1cc(Cl)c1[nH]c3c([nH]c12)c(Cl)cc1c(=O)c2ccccc2c(=O)c13	–	inconclusive: 442 nM
5	CC1=C2C[C@H]3[C@@H](CC=C4C[C@@H](O)CC[C@@]43C)[C@@H]2CC[C@]12O[C@@H]1C[C@H](C)CN[C@H]1[C@H]2C	–	inconclusive: 87.2 nM
6	CC[C@H](C)[C@H]1O[C@]2(C=C[C@@H]1C)C[C@@H]1C[C@@H](C/C=C(\C)[C@@H](O[C@H]3C[C@H](OC)[C@@H](O[C@H]4C[C@H](OC)[C@@H](NC)[C@H](C)O4)[C@H](C)O3)[C@@H](C)/C=C/C=C3\CO[C@@H]4[C@H](O)C(C)=C[C@@H](C(=O)O1)[C@]34O)O2	–	active: 4.5 nM
7	ClC1=C(Cl)[C@]2(Cl)[C@@H]3[C@@H](Cl)[C@H](Cl)C[C@@H]3[C@@]1(Cl)C2(Cl)Cl	inactive	–
8	SCc1ccco1	–	active: 25000 nM
9	N#Cc1c(Cl)c(Cl)c(Cl)c(C#N)c1Cl	inactive	–

Next part.

Row | SMILES | outcome | AC50
21 | CC(C)Nc1ccc(Nc2ccccc2)cc1 | – | inconclusive: 25000 nM
22 | O=c1oc2ccccc2c(O)c1C(CC(O)c1ccc(-c2ccc(Br)cc2)cc1)c1ccccc1 (stereo not given) | – | inconclusive: 23900 nM
23 | [Cl][Sn]([c]1ccccc1)([c]1ccccc1)[c]1ccccc1 | – | inconclusive: 22.7 nM
24 | CC(C)C(=O)OCC(C)(C)C(OC(=O)C(C)C)C(C)C (stereo not given) | – | inconclusive: 25000 nM
25 | O=[N+]([O-])c1cc(Cl)ccc1Cl | inactive | –
26 | CC(C)(C)C(O)C(Oc1ccc(Cl)cc1)n1cncn1 (stereo not given) | inactive | –
27 | Cc1cc(C)c(C(=O)P(=O)(c2ccccc2)c2ccccc2)c(C)c1 | – | inconclusive: 25000 nM
28 | O=C(O)C(F)(F)C(F)(F)C(F)(F)C(F)(F)C(F)(F)F | inactive | –
29 | CC(C)CBr | – | inconclusive: 6610 nM
30 | N#C/C=C/c1ccccc1 | – | inconclusive: 25000 nM
31 | COCC(=O)N(c1c(C)cccc1C)[C@H](C)C(=O)OC | inactive | –
32 | CCCCC(CC)COC(=O)Cl (stereo not given) | – | active: 4140 nM
33 | O=C1C2CC=CCC2C(=O)N1SC(Cl)(Cl)Cl (stereo not given) | – | active: 23000 nM
34 | COP(=O)(CCC(=O)NCO)OC | – | inconclusive: 171 nM
35 | N#Cc1cc([N+](=O)[O-])ccc1N | – | inconclusive: 345 nM
36 | Cc1ccc(C(=O)Cl)cc1 | inactive | –
37 | C[As+](C)(C)CC(=O)[O-] | – | inconclusive: 25000 nM
38 | O=S(=O)(C(Cl)(Cl)Cl)C(Cl)(Cl)Cl | – | inconclusive: 6520 nM
39 | CCOP(=S)(OCC)SCS(=O)(=O)CC | – | inconclusive: 98.4 nM
40 | CCOc1nc(F)cc2nc(S(=O)(=O)Nc3c(Cl)cccc3Cl)nn12 | – | active: 29900 nM
